Measurements from the supplement of paper PMC6411743.
± gives the standard deviation of the averaged measurements. The entries are a selection whose mix differs from that of the whole data set.

The chains behind the UniProt entries cited, without tags or fusion partners. Where a name states a change or a piece, a line headed by the entry shows the natural chain unless it says otherwise.
UniProt Q15751: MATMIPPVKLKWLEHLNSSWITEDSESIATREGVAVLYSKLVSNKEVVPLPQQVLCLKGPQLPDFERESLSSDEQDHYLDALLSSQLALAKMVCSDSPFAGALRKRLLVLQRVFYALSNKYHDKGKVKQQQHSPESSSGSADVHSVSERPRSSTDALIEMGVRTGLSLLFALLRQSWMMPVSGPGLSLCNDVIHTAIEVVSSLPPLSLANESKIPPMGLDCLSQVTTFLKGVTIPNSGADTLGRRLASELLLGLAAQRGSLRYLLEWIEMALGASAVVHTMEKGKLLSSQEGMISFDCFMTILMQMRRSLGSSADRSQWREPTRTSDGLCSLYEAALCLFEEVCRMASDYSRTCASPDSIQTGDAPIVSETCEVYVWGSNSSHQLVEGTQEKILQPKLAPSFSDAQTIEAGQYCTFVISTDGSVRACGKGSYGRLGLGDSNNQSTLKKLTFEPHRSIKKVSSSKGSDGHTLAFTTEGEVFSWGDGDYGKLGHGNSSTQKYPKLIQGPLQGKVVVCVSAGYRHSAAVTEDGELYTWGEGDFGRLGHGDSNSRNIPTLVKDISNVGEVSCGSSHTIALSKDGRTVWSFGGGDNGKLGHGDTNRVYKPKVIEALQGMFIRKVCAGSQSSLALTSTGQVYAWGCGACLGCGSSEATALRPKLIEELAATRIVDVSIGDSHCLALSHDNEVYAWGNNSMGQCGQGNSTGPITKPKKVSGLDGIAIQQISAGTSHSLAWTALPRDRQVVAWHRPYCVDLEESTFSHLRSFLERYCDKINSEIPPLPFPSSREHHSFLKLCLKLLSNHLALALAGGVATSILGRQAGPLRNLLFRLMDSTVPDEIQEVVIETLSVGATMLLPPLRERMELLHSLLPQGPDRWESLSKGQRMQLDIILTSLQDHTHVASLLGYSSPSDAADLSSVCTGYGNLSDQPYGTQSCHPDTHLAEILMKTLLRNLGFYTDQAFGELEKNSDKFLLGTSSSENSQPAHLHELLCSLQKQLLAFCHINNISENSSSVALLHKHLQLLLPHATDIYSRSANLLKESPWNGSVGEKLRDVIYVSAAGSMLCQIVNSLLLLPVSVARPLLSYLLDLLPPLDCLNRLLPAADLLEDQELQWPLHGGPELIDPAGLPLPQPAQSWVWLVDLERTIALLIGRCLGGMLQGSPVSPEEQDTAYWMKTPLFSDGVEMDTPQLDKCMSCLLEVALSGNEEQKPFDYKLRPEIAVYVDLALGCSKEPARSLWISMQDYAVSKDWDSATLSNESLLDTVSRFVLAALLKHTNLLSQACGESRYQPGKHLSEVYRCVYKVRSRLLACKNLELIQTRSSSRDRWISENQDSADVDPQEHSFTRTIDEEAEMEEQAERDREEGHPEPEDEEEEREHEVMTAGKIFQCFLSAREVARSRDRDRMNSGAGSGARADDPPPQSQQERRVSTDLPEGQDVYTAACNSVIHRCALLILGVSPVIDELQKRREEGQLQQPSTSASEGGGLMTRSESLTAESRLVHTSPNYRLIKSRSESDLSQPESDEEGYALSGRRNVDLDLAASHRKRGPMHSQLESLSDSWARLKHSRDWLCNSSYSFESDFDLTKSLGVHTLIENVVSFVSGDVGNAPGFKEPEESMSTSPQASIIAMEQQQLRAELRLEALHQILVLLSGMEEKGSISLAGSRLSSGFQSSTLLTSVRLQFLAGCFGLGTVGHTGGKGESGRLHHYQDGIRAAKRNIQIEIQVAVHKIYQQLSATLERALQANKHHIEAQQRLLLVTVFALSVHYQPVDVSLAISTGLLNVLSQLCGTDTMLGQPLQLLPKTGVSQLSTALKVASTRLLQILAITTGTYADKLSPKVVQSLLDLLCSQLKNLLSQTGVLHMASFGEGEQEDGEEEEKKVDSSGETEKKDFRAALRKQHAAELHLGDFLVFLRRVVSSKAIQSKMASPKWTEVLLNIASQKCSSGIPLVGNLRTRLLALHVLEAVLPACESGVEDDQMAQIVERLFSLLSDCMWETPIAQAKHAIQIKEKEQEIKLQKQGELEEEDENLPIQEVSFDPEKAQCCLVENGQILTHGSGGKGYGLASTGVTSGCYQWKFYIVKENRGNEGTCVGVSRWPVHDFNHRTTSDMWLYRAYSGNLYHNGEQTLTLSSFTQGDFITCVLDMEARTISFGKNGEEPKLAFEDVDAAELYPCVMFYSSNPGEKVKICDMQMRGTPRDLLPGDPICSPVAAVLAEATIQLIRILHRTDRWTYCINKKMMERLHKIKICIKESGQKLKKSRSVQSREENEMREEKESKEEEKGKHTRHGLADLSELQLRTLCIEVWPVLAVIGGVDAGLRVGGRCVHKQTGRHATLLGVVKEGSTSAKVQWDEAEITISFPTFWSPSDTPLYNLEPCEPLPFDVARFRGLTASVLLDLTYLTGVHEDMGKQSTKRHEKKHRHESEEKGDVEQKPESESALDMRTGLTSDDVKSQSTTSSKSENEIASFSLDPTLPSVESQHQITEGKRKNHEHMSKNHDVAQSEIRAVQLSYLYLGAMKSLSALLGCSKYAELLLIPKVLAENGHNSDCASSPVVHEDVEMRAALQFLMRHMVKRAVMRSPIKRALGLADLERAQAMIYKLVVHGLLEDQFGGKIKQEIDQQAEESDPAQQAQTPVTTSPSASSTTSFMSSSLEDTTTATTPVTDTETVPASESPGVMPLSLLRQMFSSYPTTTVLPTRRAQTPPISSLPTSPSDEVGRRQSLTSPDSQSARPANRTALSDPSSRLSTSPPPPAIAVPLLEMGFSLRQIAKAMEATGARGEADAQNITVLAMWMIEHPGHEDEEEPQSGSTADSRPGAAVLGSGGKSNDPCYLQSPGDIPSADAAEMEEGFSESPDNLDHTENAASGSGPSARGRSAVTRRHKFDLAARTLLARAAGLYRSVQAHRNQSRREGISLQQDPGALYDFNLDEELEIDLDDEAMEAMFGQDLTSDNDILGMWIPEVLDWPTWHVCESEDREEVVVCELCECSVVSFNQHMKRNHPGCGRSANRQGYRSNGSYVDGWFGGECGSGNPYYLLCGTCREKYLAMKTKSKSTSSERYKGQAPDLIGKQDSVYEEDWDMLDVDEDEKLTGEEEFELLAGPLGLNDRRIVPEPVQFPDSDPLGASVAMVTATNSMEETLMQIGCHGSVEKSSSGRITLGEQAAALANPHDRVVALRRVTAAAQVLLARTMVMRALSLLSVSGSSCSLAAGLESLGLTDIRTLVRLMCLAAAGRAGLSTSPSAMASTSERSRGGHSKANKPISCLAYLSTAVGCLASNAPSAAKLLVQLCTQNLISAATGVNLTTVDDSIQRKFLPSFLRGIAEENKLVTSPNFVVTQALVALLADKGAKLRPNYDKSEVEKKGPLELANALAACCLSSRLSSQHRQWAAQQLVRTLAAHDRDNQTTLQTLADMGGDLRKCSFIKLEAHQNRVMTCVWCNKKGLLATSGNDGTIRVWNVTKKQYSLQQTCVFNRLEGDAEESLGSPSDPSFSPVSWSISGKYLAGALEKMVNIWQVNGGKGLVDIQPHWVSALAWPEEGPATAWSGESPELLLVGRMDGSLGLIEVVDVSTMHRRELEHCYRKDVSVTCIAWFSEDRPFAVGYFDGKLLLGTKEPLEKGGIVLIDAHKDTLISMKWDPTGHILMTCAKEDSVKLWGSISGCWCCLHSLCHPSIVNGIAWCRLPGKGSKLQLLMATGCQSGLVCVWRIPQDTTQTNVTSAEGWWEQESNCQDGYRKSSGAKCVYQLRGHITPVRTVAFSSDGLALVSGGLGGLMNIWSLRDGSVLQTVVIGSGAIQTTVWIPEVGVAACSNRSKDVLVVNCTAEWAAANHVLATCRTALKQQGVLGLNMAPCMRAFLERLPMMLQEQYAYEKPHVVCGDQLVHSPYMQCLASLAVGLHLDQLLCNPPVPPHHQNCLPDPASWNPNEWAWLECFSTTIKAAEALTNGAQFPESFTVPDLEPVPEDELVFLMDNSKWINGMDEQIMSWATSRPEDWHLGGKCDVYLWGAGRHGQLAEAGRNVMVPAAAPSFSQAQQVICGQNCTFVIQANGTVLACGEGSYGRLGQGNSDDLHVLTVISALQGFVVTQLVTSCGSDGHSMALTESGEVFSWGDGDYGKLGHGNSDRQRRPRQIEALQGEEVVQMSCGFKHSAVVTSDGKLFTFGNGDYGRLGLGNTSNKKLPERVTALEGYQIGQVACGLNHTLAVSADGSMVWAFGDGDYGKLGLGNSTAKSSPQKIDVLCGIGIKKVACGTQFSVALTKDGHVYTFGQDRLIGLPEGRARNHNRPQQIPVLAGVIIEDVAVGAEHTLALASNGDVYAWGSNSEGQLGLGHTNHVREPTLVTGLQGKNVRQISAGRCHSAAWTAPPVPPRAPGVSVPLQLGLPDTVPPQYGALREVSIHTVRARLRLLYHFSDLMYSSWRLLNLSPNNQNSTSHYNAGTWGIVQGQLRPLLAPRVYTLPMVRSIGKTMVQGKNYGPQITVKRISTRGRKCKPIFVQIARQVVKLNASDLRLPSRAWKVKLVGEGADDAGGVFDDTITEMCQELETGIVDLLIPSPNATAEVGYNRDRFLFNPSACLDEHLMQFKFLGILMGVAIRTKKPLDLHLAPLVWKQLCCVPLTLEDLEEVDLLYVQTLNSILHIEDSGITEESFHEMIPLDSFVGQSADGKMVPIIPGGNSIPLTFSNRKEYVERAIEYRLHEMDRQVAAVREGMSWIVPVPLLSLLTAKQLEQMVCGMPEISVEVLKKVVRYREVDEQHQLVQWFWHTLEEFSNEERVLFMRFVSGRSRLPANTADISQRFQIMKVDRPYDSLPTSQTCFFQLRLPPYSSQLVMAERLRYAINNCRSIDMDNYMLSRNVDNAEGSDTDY
UniProt Q15020: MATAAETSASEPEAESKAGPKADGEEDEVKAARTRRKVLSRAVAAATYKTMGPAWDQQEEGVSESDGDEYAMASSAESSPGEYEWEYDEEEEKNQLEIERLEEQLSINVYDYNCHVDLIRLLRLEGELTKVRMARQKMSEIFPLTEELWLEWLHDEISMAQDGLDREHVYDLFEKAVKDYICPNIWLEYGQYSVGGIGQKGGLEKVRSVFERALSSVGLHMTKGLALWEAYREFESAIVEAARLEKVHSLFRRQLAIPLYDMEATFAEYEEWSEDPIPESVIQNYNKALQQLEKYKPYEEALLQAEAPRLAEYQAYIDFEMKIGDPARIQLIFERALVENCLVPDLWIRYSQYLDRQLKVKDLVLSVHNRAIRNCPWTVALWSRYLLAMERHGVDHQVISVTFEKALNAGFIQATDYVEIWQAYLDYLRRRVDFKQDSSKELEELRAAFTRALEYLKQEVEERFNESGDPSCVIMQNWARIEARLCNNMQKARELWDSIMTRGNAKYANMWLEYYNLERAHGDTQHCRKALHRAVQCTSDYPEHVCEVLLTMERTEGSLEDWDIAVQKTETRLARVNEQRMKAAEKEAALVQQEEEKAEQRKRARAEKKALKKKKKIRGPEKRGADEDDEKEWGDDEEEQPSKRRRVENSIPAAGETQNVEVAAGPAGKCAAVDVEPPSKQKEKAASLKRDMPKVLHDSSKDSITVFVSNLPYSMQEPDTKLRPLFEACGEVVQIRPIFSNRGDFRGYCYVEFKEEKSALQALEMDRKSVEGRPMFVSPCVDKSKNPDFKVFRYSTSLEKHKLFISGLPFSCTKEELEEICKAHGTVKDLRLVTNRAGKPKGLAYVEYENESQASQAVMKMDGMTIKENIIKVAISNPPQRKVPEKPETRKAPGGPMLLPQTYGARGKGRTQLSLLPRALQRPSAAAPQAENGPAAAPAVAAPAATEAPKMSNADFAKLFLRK
UniProt Q14691: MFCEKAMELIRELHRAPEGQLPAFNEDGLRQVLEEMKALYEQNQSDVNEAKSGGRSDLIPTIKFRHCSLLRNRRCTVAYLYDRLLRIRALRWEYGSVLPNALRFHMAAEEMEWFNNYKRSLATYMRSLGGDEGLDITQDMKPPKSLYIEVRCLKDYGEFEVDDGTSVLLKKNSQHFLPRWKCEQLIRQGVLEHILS
UniProt Q16864, whole entry: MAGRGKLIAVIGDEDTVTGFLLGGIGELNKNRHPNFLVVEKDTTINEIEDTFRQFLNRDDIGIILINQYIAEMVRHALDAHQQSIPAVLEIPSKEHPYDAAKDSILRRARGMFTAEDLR
UniProt Q2M296: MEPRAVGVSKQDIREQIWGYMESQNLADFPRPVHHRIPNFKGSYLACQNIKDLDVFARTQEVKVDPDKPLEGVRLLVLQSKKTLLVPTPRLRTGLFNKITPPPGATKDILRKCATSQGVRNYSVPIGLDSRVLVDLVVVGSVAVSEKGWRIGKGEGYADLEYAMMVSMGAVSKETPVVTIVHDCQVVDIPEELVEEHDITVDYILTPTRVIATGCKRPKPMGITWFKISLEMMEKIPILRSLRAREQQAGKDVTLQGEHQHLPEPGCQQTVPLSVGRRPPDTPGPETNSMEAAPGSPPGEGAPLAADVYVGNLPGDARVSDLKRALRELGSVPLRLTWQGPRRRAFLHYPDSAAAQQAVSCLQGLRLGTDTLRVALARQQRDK

Compound: Nc1ncnc2c1ncn2[C@@H]1O[C@H](COP(=O)(O)OP(=O)(O)OP(=O)(O)O)[C@@H](O)[C@H]1O [adenosine triphosphate]
Test: NP40-soluble protein abundance relative to vehicle (solubility fold change) (ratio); higher = more soluble protein in presence of ATP
Procedure, shortened: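 Each value is a fold change relative to the detergent-processed vehicle, calculated per replicate from vsn-normalised intensities. Jurkat crude lysate received eight concentrations (0.1 to 10 mM) for 10 min at room temperature and 3 min at 37 °C, then was solubilised in 0.8% NP40 with benzonase (60 min, 4 °C). The ultracentrifuged supernatant was TMT-labelled and run by LC-MS/MS in three independent experiments.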

Target	NP40-soluble protein abundance (concentration: 1mM)	NP40-soluble protein abundance (concentration: 2mM)	NP40-soluble protein abundance (concentration: 4mM)	NP40-soluble protein abundance (concentration: 6mM)	NP40-soluble protein abundance (concentration: 8mM)	NP40-soluble protein abundance (concentration: 10mM)
UniProt Q14790-2|Q14790-4|Q14790-6|Q14790-9|Q14790-5	1.02 ± 0.1	0.998 ± 0.066	1 ± 0.058	0.971 ± 0.15	1.01 ± 0.063	1.02 ± 0.053
MAPKAPK3 (UniProt Q16644)	0.948 ± 0.034	0.926 ± 0.031	0.894 ± 0.04	0.919 ± 0.035	0.898 ± 0.035	0.87 ± 0.045
UniProt Q14934 and related entries	0.949 ± 0.14	1.06 ± 0.1	1.06 ± 0.15	1.15 ± 0.094	1.07 ± 0.18	1.05 ± 0.083
UniProt Q15208	1.1 ± 0.059	1.06 ± 0.064	1.09 ± 0.043	1.04 ± 0.09	1.1 ± 0.033	1.08 ± 0.023
UniProt Q3T8J9-3	1.03 ± 0.091	1.06 ± 0.052	1.038 ± 0.0039	1.1 ± 0.1	1.01 ± 0.036	1.05 ± 0.04
UniProt Q14980 and related entries	1.2 ± 0.091	1.18 ± 0.071	1.13 ± 0.072	1.17 ± 0.14	1.07 ± 0.067	1.07 ± 0.042
DDB1 (UniProt Q16531)	1.04 ± 0.12	1.02 ± 0.085	0.998 ± 0.093	0.949 ± 0.092	1.02 ± 0.045	1.01 ± 0.061
UniProt Q17R31 and related entries	0.986 ± 0.013	1.01 ± 0.027	1.03 ± 0.024	1.01 ± 0.012	1.02 ± 0.026	1.04 ± 0.04
NONO (UniProt Q15233)	1.08 ± 0.019	1.2 ± 0.021	1.41 ± 0.035	1.55 ± 0.046	1.51 ± 0.022	1.52 ± 0.019
UniProt Q14694 and related entries	1.05 ± 0.025	1.13 ± 0.028	1.21 ± 0.047	1.3 ± 0.048	1.34 ± 0.04	1.41 ± 0.049
GNPTAB (UniProt Q3T906)	0.954 ± 0.14	0.921 ± 0.14	0.975 ± 0.07	1.02 ± 0.19	0.943 ± 0.092	0.926 ± 0.1
SLMAP (UniProt Q14BN4)	0.972 ± 0.053	0.971 ± 0.038	0.971 ± 0.037	1 ± 0.076	0.95 ± 0.033	0.966 ± 0.024
UniProt Q14318-2|Q14318	0.975 ± 0.033	0.96 ± 0.024	0.919 ± 0.039	0.97 ± 0.022	0.92 ± 0.013	0.9411 ± 0.0055
UniProt Q15583 and related entries	0.924 ± 0.024	0.973 ± 0.012	0.93 ± 0.012	0.936 ± 0.012	0.819 ± 0.016	0.938 ± 0.015
LASP1 (UniProt Q14847)	0.937 ± 0.023	0.9319 ± 0.0024	0.865 ± 0.0094	0.972 ± 0.018	0.889 ± 0.052	0.885 ± 0.024
UniProt Q1W6H9	1.14 ± 0.08	1.16 ± 0.051	1.08 ± 0.029	1.15 ± 0.12	1.1 ± 0.056	1.11 ± 0.07
SNAPC1 (UniProt Q16533)	0.946 ± 0.064	1.06 ± 0.067	1.1 ± 0.079	1.07 ± 0.055	1.11 ± 0.11	1.1 ± 0.056
UniProt Q2KHR3 and related entries	1.06 ± 0.03	1.09 ± 0.044	1.04 ± 0.084	1 ± 0.087	1.03 ± 0.017	1.057 ± 0.01
BECN1 (UniProt Q14457)	1 ± 0.049	0.975 ± 0.034	0.965 ± 0.038	0.972 ± 0.066	0.982 ± 0.022	0.98 ± 0.04
UniProt Q14669-2|Q14669-3	1.22 ± 0.013	1.28 ± 0.015	1.37 ± 0.024	1.39 ± 0.025	1.46 ± 0.015	1.46 ± 0.044

Looked up above:
Under NP40-soluble protein abundance (concentration: 1mM), UniProt Q14934 and related entries is entered as 0.949 ± 0.14
Under NP40-soluble protein abundance (concentration: 8mM), UniProt Q14790-2|Q14790-4|Q14790-6|Q14790-9|Q14790-5 is entered as 1.01 ± 0.063
Under NP40-soluble protein abundance (concentration: 2mM), UniProt Q17R31 and related entries is entered as 1.01 ± 0.027
Under NP40-soluble protein abundance (concentration: 6mM), UniProt Q15208 is entered as 1.04 ± 0.09
Under NP40-soluble protein abundance (concentration: 10mM), UniProt Q3T8J9-3 is entered as 1.05 ± 0.04

Next results.

Target	NP40-soluble protein abundance (concentration: 1mM)	NP40-soluble protein abundance (concentration: 2mM)	NP40-soluble protein abundance (concentration: 4mM)	NP40-soluble protein abundance (concentration: 6mM)	NP40-soluble protein abundance (concentration: 8mM)	NP40-soluble protein abundance (concentration: 10mM)
EXOSC7 (UniProt Q15024)	1.06 ± 0.11	1.07 ± 0.07	1.12 ± 0.065	1.08 ± 0.086	1.2 ± 0.059	1.21 ± 0.073
Q495G5 and related entries (UniProt Q8IVH4)	0.963 ± 0.028	0.963 ± 0.027	0.9373 ± 0.0068	0.898 ± 0.063	0.946 ± 0.028	0.957 ± 0.016
UniProt Q15286 and related entries	0.938 ± 0.19	0.998 ± 0.061	1.01 ± 0.081	0.973 ± 0.069	0.998 ± 0.059	0.972 ± 0.058
UniProt Q15723 and related entries	0.915 ± 0.12	0.977 ± 0.051	0.972 ± 0.052	0.986 ± 0.1	0.97 ± 0.095	0.933 ± 0.086
SAFB2 (UniProt Q14151)	0.972 ± 0.073	1 ± 0.071	1.06 ± 0.066	1.14 ± 0.1	1.13 ± 0.046	1.23 ± 0.048
UniProt Q14684 and related entries	1.01 ± 0.051	1.03 ± 0.017	1.05 ± 0.025	1.12 ± 0.021	1.089 ± 0.0036	1.1 ± 0.041
ETFDH (UniProt Q16134)	1 ± 0.064	0.984 ± 0.048	0.98 ± 0.019	0.957 ± 0.076	0.984 ± 0.046	0.98 ± 0.052
UniProt Q4G0N4	0.991 ± 0.073	0.986 ± 0.035	0.971 ± 0.066	0.956 ± 0.11	0.993 ± 0.056	0.981 ± 0.05
HERC1 (UniProt Q15751)	1.03 ± 0.026	1 ± 0.031	0.984 ± 0.023	0.949 ± 0.043	1 ± 0.048	0.978 ± 0.063
NCOA2 (UniProt Q15596)	0.948 ± 0.036	0.965 ± 0.015	0.964 ± 0.067	0.989 ± 0.022	0.9483 ± 0.0065	0.958 ± 0.03
UniProt Q147X3	0.926 ± 0.085	1 ± 0.068	1.02 ± 0.041	0.962 ± 0.071	0.982 ± 0.029	1.03 ± 0.025
UniProt Q15020 and related entries	0.989 ± 0.022	0.958 ± 0.026	0.958 ± 0.033	0.975 ± 0.041	0.983 ± 0.04	0.976 ± 0.048
FRG1 (UniProt Q14331)	1.13 ± 0.015	1.14 ± 0.038	1.12 ± 0.05	1.21 ± 0.058	1.18 ± 0.061	1.18 ± 0.037
SKIV2L (UniProt Q15477)	1.02 ± 0.051	1.06 ± 0.038	1.14 ± 0.018	1.14 ± 0.022	1.25 ± 0.048	1.3 ± 0.061
GINS1 (UniProt Q14691)	0.962 ± 0.03	0.966 ± 0.013	0.961 ± 0.022	0.955 ± 0.046	0.929 ± 0.046	0.897 ± 0.083
UniProt Q15173 and related entries	1.05 ± 0.025	1.04 ± 0.014	0.9965 ± 0.0038	1.03 ± 0.044	0.927 ± 0.12	0.997 ± 0.18
WDR43 (UniProt Q15061)	1.19 ± 0.27	1.11 ± 0.015	1.26 ± 0.063	1.41 ± 0.12	1.39 ± 0.087	1.51 ± 0.027
UniProt Q16851 and related entries	0.97 ± 0.015	0.9543 ± 0.005	0.929 ± 0.028	0.948 ± 0.036	0.95 ± 0.015	0.952 ± 0.032
UniProt Q16864 and related entries	1.01 ± 0.072	1.01 ± 0.045	0.938 ± 0.036	1.02 ± 0.069	0.975 ± 0.051	0.913 ± 0.035
UniProt Q15042 and related entries	1.01 ± 0.015	0.998 ± 0.016	0.993 ± 0.017	0.972 ± 0.013	0.974 ± 0.021	0.978 ± 0.037

Target	NP40-soluble protein abundance (concentration: 1mM)	NP40-soluble protein abundance (concentration: 2mM)	NP40-soluble protein abundance (concentration: 4mM)	NP40-soluble protein abundance (concentration: 6mM)	NP40-soluble protein abundance (concentration: 8mM)	NP40-soluble protein abundance (concentration: 10mM)
UniProt Q16656 and related entries	0.955 ± 0.062	0.962 ± 0.054	0.933 ± 0.042	0.949 ± 0.067	0.913 ± 0.042	0.937 ± 0.028
RASA3 (UniProt Q14644)	1.02 ± 0.086	0.967 ± 0.029	0.958 ± 0.042	0.968 ± 0.051	1.01 ± 0.086	1 ± 0.076
RSU1 (UniProt Q15404)	1.02 ± 0.04	1 ± 0.035	0.989 ± 0.029	0.969 ± 0.049	0.969 ± 0.059	0.952 ± 0.037
RRS1 (UniProt Q15050)	1.04 ± 0.088	0.979 ± 0.12	1.01 ± 0.084	0.994 ± 0.16	0.907 ± 0.081	0.957 ± 0.048
UniProt Q16576 and related entries	1.04 ± 0.013	0.993 ± 0.0099	1 ± 0.038	0.989 ± 0.038	1 ± 0.046	0.954 ± 0.019
EIF3A (UniProt Q14152)	1.02 ± 0.077	1.06 ± 0.098	1.19 ± 0.11	1.35 ± 0.15	1.48 ± 0.11	1.64 ± 0.13
UniProt Q15788 and related entries	0.935 ± 0.029	0.984 ± 0.059	0.942 ± 0.031	0.974 ± 0.031	0.913 ± 0.025	0.931 ± 0.04
ITPR3 (UniProt Q14573)	1.08 ± 0.036	1.04 ± 0.053	1.05 ± 0.02	1.02 ± 0.1	1.1 ± 0.086	1.1 ± 0.13
CEBPE (UniProt Q15744)	0.938 ± 0.05	0.887 ± 0.053	0.9 ± 0.03	0.921 ± 0.074	0.849 ± 0.037	0.821 ± 0.056
CBX2 (UniProt Q14781)	1.13 ± 0.028	1.14 ± 0.057	1.16 ± 0.016	1.39 ± 0.038	1.27 ± 0.12	1.49 ± 0.064
MLF2 (UniProt Q15773)	0.785 ± 0.09	0.729 ± 0.018	0.717 ± 0.027	0.713 ± 0.021	0.712 ± 0.014	0.732 ± 0.045
UniProt Q2M296 and related entries	1.08 ± 0.053	1.14 ± 0.065	1.2 ± 0.11	1.15 ± 0.036	1.18 ± 0.059	1.25 ± 0.14
UniProt Q14257 and related entries	0.979 ± 0.043	0.961 ± 0.018	0.935 ± 0.023	0.974 ± 0.064	0.959 ± 0.02	0.921 ± 0.014
UniProt Q14156 and related entries	1.02 ± 0.073	1.04 ± 0.04	1.02 ± 0.1	0.991 ± 0.042	1.17 ± 0.037	1.01 ± 0.058
CCDC6 (UniProt Q16204)	0.956 ± 0.088	0.927 ± 0.036	0.882 ± 0.055	0.942 ± 0.052	0.8947 ± 0.0069	0.853 ± 0.05
PPP2R5A (UniProt Q15172)	1.01 ± 0.036	1.03 ± 0.053	1.01 ± 0.06	1.01 ± 0.047	1 ± 0.059	1 ± 0.067
TRADD (UniProt Q15628)	1.02 ± 0.044	0.96 ± 0.029	0.95 ± 0.011	0.939 ± 0.013	0.926 ± 0.072	0.911 ± 0.048
PTPRCAP (UniProt Q14761)	0.823 ± 0.018	0.84 ± 0.054	0.839 ± 0.077	0.784 ± 0.083	0.795 ± 0.035	0.83 ± 0.061
TERF2 (UniProt Q15554)	1.03 ± 0.033	1.071 ± 0.01	1.08 ± 0.017	1.09 ± 0.012	1.06 ± 0.019	1.11 ± 0.022
GNA13 (UniProt Q14344)	1.04 ± 0.097	0.99 ± 0.066	1 ± 0.073	0.955 ± 0.11	1.02 ± 0.067	0.957 ± 0.054
